US20260200987A1, “PEPTIDE FOR CARTILAGE REGENERATION, AND USES THEREOF” (CAREGEN CO., LTD., priority 2022, published 2026)
Not every detail of the peptide structures is certain; ends, links or a residue may be inferred. Ends that are not written are not given here.

Key:
Assay type in all cases: cell-based, human
SOX9 in AD-MSC cells = test: mRNA expression of ECM regulatory factor SOX9 (PCR); settings: after 3, 7, and 14 days, FIG. 9 and FIG. 10
AD-MSC cells = test: Glycosaminoglycan production, Alcian blue staining; settings: after 14 days, FIG. 5 and FIG. 6
[1] = test system: SOX5, SOX6, and SOX9 in AD-MSC cells; test: Expression of ECM regulatory factors SOX5, SOX6, and SOX9 (Western blot); settings: after 3, 7, and 14 days, FIG. 11 and FIG. 12
[2] = test system: ECM components COL2A1, COMP, COL 11A, PCP, and ACAN in AD-MSC cells; test: mRNA expression of ECM components (PCR); settings: after 3, 7, and 14 days, FIG. 7 and FIG. 8
COL2A1 in AD-MSC cells = test: Expression of COL2A1 (Western blot); settings: after 3, 7, and 14 days, FIG. 13

Sequence | production of SOX9, an ECM regulatory factor (mRNA expression) (SOX9 in AD-MSC cells) | production of glycosaminoglycan (AD-MSC cells) | expression of ECM regulatory factor SOX5 [1] | expression of ECM regulatory factor SOX6 [1] | expression of ECM regulatory factor SOX9 [1] | production of ECM component ACAN (mRNA expression) [2] | production of ECM component COL2A1 (mRNA expression) [2] | production of ECM component COL 11A (mRNA expression) [2] | production of ECM component COMP (mRNA expression) [2] | production of ECM component PCP (mRNA expression) [2] | expression of COL2A1 (COL2A1 in AD-MSC cells)
RIAFLWVRIK [Peptide-1, RIAFLWVRIK] | promoted the production | increasing the production | increased the expression | increased the expression | increased the expression | induced the production | induced the production | induced the production | induced the production | induced the production | –
FCRPRNDFF [Peptide-2, FCRPRNDFF] | promoted the production | increasing the production | increased the expression | increased the expression | increased the expression | induced the production | induced the production | induced the production | induced the production | induced the production | increased the expression
